Experimental data as given in the supplement of paper PMC10849652.
Some of the results follow.

Sequences of proteins named here, by UniProt entry; tags and fusion partners are left off. A change or cut given only in a name is not applied to a line headed by its entry.
UniProt Q8NDD1: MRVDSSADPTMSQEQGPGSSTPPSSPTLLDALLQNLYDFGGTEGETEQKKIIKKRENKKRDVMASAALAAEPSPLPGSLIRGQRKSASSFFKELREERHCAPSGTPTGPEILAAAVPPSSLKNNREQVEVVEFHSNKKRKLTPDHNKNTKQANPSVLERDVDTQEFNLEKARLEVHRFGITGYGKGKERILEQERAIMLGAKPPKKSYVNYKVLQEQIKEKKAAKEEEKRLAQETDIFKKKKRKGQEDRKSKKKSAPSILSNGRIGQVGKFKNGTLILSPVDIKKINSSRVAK
UniProt Q8N999, whole entry, looked up: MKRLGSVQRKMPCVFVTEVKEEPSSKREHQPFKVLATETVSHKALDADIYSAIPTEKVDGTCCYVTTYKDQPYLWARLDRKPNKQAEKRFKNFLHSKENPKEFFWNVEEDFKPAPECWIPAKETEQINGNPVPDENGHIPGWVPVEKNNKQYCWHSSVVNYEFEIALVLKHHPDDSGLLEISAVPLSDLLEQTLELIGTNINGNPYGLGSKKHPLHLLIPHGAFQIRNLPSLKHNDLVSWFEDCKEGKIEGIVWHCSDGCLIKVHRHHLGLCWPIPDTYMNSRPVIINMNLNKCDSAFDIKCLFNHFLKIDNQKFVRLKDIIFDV
UniProt P27797, whole entry, looked up: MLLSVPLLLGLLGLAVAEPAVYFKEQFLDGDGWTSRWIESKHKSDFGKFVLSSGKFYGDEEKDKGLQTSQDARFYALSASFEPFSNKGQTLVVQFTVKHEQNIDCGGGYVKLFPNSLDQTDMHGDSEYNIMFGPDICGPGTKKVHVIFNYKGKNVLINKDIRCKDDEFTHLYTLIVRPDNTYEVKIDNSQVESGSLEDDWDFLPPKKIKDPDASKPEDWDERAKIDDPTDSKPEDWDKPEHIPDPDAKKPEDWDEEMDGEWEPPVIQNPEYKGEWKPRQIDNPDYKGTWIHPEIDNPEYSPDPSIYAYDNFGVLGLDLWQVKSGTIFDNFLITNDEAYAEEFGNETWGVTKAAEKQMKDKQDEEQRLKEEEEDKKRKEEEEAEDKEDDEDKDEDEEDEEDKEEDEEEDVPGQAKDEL
UniProt Q9BVC5: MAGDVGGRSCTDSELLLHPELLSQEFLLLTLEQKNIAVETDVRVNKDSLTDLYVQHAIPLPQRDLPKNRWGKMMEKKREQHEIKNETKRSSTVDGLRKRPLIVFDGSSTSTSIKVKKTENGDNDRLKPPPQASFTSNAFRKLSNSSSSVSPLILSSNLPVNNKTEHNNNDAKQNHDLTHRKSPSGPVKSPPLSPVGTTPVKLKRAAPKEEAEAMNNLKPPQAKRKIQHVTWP
UniProt O43852: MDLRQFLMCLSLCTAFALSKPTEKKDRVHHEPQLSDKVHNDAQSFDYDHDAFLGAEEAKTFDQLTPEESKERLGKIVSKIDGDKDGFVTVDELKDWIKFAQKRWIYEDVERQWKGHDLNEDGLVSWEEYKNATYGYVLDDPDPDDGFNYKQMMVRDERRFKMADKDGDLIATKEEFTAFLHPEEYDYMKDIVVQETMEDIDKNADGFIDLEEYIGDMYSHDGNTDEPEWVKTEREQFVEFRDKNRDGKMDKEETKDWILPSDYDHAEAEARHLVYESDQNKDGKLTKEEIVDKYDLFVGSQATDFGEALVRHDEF
UniProt Q6UWU4: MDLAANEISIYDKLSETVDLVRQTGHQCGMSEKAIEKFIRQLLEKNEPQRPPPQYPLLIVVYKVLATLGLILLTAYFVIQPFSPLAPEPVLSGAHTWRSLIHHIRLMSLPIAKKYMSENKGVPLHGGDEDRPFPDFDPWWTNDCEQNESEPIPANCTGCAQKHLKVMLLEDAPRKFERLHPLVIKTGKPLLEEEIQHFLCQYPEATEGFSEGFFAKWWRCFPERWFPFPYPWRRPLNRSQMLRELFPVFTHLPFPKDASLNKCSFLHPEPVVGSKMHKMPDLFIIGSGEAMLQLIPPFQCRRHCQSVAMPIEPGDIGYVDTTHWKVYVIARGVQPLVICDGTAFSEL
UniProt Q9H0W9: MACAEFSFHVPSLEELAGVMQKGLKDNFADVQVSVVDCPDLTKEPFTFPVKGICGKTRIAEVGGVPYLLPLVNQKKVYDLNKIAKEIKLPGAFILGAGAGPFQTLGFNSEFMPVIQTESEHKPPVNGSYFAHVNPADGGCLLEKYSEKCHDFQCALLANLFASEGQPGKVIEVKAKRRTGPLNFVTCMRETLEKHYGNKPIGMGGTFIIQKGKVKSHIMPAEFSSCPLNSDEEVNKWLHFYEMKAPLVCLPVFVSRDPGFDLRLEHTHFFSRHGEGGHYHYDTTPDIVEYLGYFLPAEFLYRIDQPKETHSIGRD
UniProt Q9NX04: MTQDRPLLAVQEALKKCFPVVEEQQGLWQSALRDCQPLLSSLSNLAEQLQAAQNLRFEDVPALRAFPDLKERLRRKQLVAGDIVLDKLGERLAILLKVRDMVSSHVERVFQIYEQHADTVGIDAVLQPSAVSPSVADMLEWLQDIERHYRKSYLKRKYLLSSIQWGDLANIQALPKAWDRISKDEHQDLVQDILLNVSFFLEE
UniProt Q9BSJ5: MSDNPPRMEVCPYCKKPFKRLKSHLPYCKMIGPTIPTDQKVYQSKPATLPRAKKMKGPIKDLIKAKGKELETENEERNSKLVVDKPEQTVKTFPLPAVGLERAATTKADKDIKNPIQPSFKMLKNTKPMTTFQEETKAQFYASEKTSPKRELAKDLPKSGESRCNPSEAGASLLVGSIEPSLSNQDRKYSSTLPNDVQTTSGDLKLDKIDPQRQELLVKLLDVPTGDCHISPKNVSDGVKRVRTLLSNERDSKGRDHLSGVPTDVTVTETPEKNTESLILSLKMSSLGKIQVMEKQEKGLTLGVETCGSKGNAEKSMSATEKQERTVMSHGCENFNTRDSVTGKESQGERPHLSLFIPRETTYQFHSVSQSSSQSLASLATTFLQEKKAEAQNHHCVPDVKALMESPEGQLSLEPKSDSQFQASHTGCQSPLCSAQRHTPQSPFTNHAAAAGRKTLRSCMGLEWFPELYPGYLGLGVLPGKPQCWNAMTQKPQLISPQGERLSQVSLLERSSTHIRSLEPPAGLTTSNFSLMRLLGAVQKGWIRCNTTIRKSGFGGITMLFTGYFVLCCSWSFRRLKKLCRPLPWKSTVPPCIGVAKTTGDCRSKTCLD
UniProt P01024, whole entry, looked up: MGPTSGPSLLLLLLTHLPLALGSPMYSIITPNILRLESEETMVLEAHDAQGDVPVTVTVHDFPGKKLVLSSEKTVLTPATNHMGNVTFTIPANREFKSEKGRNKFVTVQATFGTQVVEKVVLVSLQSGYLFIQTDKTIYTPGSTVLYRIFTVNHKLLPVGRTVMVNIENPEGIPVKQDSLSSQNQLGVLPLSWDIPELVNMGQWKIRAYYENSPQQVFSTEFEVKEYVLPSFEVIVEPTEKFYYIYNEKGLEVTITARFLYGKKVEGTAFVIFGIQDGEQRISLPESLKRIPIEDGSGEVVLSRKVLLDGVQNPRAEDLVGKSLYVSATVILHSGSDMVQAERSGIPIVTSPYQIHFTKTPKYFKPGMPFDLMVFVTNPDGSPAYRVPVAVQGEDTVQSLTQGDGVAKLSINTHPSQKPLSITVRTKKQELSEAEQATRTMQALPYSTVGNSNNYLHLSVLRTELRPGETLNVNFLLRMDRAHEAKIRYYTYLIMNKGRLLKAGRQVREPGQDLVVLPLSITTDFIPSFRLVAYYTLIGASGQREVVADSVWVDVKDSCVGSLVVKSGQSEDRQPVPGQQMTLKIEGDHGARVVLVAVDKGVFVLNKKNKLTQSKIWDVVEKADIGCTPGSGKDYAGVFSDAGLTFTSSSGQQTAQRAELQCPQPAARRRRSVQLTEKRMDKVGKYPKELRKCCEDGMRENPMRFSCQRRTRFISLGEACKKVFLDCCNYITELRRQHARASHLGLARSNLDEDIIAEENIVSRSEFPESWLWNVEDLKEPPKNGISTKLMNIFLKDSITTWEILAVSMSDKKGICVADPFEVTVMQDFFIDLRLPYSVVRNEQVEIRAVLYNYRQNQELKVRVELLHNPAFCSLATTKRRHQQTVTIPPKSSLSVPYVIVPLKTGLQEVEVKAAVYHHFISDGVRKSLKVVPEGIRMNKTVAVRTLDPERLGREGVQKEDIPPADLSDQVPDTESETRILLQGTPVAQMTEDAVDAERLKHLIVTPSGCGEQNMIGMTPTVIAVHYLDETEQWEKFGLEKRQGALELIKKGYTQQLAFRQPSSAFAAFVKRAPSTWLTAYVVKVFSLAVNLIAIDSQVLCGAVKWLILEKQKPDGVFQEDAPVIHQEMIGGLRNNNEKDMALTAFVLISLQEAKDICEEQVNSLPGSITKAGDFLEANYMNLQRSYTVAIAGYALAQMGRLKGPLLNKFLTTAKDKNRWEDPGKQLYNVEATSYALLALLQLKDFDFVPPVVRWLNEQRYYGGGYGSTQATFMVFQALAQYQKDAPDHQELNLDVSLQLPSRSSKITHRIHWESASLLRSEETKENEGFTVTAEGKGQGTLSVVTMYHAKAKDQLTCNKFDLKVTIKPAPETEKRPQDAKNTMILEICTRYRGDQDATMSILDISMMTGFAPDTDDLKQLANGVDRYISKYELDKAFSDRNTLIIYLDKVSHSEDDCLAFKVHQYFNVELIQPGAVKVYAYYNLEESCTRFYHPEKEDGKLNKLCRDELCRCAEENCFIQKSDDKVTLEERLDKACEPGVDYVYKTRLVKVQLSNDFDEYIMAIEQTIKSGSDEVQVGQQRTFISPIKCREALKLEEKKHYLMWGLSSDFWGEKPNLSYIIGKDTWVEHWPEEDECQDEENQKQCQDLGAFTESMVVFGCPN
UniProt Q9UFG5: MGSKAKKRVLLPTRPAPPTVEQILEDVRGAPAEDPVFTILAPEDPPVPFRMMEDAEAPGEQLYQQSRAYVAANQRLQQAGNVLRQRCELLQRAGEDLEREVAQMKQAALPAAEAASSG
UniProt Q9Y426: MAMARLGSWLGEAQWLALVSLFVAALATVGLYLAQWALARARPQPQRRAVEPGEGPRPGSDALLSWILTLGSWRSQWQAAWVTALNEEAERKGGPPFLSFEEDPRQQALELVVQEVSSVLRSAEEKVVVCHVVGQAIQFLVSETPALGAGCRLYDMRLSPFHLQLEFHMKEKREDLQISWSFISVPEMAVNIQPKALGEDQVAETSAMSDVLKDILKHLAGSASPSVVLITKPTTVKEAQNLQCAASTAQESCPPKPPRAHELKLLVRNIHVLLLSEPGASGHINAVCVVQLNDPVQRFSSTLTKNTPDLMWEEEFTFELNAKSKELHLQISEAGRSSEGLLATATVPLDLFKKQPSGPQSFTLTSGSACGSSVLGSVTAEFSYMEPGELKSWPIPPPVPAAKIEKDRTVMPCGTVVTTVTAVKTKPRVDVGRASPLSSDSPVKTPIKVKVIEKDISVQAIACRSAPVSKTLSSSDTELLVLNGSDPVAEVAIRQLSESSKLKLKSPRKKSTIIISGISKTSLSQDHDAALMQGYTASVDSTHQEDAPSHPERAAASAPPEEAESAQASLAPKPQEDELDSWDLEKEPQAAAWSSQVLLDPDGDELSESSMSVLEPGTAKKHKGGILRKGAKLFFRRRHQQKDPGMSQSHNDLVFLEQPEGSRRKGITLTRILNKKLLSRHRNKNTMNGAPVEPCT
UniProt P35613: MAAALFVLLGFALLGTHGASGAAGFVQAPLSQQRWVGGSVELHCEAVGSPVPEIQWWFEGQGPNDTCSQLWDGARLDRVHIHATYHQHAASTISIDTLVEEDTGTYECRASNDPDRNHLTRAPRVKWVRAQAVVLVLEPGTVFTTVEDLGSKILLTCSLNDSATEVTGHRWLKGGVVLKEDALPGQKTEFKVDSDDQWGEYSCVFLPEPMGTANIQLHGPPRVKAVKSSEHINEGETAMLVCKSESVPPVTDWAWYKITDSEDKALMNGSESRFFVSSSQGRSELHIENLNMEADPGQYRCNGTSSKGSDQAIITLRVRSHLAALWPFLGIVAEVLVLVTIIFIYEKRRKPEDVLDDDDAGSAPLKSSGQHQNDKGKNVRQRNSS
UniProt O95873: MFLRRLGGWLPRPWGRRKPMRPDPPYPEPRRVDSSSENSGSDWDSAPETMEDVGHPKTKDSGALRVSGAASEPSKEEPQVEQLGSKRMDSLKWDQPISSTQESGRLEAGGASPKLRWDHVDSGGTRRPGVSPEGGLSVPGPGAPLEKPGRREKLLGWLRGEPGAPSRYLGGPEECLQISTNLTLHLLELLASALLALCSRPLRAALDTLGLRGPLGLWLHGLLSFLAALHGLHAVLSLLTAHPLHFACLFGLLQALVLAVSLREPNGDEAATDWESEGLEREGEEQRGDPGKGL
UniProt Q9H425: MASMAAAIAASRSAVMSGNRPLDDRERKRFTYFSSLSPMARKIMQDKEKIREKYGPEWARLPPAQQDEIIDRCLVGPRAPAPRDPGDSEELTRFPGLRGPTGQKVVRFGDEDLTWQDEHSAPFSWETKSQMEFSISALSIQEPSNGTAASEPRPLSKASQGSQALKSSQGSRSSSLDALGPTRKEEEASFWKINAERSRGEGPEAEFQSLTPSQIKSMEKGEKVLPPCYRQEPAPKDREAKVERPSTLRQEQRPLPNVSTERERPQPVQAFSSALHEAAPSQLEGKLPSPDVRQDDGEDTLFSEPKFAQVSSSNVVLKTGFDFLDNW

compound: CN1CCc2c(c3ccccc3n2Cc2ccc(C(=O)NO)cc2)C1 [Tubastatin A]; experiment: log2 fold change, soluble protein after heating vs DMSO (PISA); higher = thermal stabilisation; K562 cells, 10 uM, 30 min; active = over 0.2 and 3.5 SD of the protein, either way, in both replicates (recomputed)
How it was run: (§1)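 K562 cells at 2×10^6 cells/mL were treated for 30 min with 10 μM compound, and aliquots were heated for 3 min over 48°C-58°C before pooling. Extraction used PBS with 0.5% NP-40 at 4°C, and soluble protein was the supernatant after 21,000xg for 90 min, measured by TMTpro 16plex LC-MS/MS with channel sums equalised. Thermal stability values, relative to control samples and from duplicates, are log2 fold changes.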

log2 fold change, inactive:
C1GALT1 (UniProt Q9NS00) 0.001
BUD13 (UniProt Q9BRD0) 0.042
BUD23 isoform 3 (UniProt O43709) -0.059
C1orf131 isoform 5 (UniProt Q8NDD1) 0.072
BTF3 (UniProt P20290) 0
C12orf29 (UniProt Q8N999) -0.102
C11orf98 (UniProt E9PRG8) 0.076
CALR (UniProt P27797) -0.023
BUB1 (UniProt O43683) -0.009
CAB39 (UniProt Q9Y376) -0.005
C2orf49 (UniProt Q9BVC5) 0.141
CALU isoform 3 (UniProt O43852) -0.019
C9orf40 (UniProt Q8IXQ3) 0.21
C5orf51 (UniProt A6NDU8) 0.031
CAPZA2 (UniProt P47755) -0.012
CALM2 (UniProt P0DP24) 0.001
C6orf89 isoform 2 (UniProt Q6UWU4) 0.049
CARHSP1 (UniProt Q9Y2V2) -0.003
C5orf22 (UniProt Q49AR2) -0.091
BTK isoform 2 (UniProt Q06187) 0.203
C1orf122 (UniProt Q6ZSJ8) 0.013
C11orf54 (UniProt Q9H0W9) 0.053
C1orf109 (UniProt Q9NX04) -0.091
C3orf38 (UniProt Q5JPI3) -0.225
C17orf80 (UniProt Q9BSJ5) -0.047
C8orf33 isoform 2 (UniProt Q9H7E9) 0.223
C9orf85 isoform 1 (UniProt Q96MD7) 0.067
C2CD5 isoform 4 (UniProt Q86YS7) 0.057
C3 (UniProt P01024) -0.12
C2CD2L (UniProt O14523) -0.039
CA13 (UniProt Q8N1Q1) 0.157
C19orf25 (UniProt Q9UFG5) 0.286
CACYBP (UniProt Q9HB71) -0.011
C2CD2 (UniProt Q9Y426) 0.031
C15orf40 (UniProt Q8WUR7) -0.034
BSG (UniProt P35613) 0.001
BTF3L4 (UniProt Q96K17) 0.006
C6orf47 (UniProt O95873) -0.001
C1orf198 (UniProt Q9H425) 0.094

compound: CNC(=O)C1=CC=CC=C1NC2=NC(=NC=C2Cl)NC3=C(C=C(C=C3)N4CCOCC4)OC; experiment: as above
How it was run: as §1

log2 fold change, inactive:
C1GALT1 (UniProt Q9NS00) 0.07
BUD13 (UniProt Q9BRD0) 0.046
BUD23 isoform 3 (UniProt O43709) 0.009
C1orf131 isoform 5 (UniProt Q8NDD1) -0.013
BTF3 (UniProt P20290) -0.032
C12orf29 (UniProt Q8N999) 0.014
C11orf98 (UniProt E9PRG8) 0.052
CALR (UniProt P27797) 0.014
BUB1 (UniProt O43683) -0.094
CAB39 (UniProt Q9Y376) -0.01
C2orf49 (UniProt Q9BVC5) 0.103
CALU isoform 3 (UniProt O43852) -0.015
C9orf40 (UniProt Q8IXQ3) -0.043
C5orf51 (UniProt A6NDU8) 0.019
CAPZA2 (UniProt P47755) 0.058
CALM2 (UniProt P0DP24) -0.037
C6orf89 isoform 2 (UniProt Q6UWU4) 0.063
CARHSP1 (UniProt Q9Y2V2) 0.006
C5orf22 (UniProt Q49AR2) -0.033
BTK isoform 2 (UniProt Q06187) 0.27
C1orf122 (UniProt Q6ZSJ8) 0.054
C11orf54 (UniProt Q9H0W9) -0.009
C1orf109 (UniProt Q9NX04) 0.011
C17orf80 (UniProt Q9BSJ5) -0.027
C9orf85 isoform 1 (UniProt Q96MD7) -0.098
C2CD5 isoform 4 (UniProt Q86YS7) -0.081
C3 (UniProt P01024) 0.091
C2CD2L (UniProt O14523) 0.083
CA13 (UniProt Q8N1Q1) -0.081
C19orf25 (UniProt Q9UFG5) -0.032
CACYBP (UniProt Q9HB71) 0.017
C2CD2 (UniProt Q9Y426) -0.124
C15orf40 (UniProt Q8WUR7) 0.042
BSG (UniProt P35613) 0.011
BTF3L4 (UniProt Q96K17) -0.013
C6orf47 (UniProt O95873) 0.023
C1orf198 (UniProt Q9H425) -0.041
